Test results published in the supplement of paper PMC10849652.
This is one part of the list.

By UniProt entry, the sequences of proteins in these tests, tags left out. Where a name states a change or a piece, a line headed by the entry shows the natural chain unless it says otherwise.
UniProt Q16877: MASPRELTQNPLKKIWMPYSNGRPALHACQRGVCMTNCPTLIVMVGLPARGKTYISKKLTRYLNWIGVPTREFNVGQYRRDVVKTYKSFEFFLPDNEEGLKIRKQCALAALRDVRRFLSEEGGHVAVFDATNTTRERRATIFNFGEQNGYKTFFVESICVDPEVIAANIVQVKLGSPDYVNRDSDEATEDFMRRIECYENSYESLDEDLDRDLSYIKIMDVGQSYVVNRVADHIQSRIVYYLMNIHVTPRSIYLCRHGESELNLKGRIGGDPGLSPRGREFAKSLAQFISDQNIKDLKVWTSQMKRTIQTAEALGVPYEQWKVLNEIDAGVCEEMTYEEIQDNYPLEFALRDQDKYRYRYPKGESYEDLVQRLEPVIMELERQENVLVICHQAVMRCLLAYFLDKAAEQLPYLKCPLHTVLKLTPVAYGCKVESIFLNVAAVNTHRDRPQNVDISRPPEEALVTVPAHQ
UniProt O00541, whole entry, looked up: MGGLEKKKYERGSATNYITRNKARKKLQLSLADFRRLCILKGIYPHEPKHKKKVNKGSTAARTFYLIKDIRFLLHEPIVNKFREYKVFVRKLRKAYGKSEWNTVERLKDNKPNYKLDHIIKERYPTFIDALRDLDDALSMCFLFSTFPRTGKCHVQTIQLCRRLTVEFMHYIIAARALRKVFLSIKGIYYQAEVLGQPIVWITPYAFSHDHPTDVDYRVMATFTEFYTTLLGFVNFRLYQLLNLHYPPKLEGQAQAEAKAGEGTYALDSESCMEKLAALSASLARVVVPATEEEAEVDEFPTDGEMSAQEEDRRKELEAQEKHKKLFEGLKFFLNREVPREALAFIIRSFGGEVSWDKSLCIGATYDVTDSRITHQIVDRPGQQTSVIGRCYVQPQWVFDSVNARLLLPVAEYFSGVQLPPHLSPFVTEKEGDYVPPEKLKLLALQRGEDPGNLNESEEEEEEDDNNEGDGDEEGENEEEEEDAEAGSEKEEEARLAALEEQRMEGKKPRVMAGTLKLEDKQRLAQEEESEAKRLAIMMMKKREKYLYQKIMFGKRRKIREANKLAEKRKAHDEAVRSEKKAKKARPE
UniProt P08559, whole entry, looked up: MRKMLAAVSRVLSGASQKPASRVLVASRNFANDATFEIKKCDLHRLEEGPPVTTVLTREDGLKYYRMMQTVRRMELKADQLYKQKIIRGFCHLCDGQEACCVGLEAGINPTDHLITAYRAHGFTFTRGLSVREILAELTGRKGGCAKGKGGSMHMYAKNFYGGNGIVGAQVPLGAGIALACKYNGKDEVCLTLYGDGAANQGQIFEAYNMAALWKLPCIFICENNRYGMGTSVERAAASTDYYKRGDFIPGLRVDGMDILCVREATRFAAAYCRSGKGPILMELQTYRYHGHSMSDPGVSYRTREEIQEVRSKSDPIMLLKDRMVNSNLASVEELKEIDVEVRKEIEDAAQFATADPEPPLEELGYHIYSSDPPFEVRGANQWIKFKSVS
UniProt Q86SE9: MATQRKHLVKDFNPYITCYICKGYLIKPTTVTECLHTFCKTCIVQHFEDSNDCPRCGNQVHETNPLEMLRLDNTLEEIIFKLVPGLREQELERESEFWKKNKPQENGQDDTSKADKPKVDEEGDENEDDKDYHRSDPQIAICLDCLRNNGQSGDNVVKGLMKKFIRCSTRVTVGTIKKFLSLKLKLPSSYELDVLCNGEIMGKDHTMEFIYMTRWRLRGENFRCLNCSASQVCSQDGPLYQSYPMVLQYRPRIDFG
UniProt Q8NBM8: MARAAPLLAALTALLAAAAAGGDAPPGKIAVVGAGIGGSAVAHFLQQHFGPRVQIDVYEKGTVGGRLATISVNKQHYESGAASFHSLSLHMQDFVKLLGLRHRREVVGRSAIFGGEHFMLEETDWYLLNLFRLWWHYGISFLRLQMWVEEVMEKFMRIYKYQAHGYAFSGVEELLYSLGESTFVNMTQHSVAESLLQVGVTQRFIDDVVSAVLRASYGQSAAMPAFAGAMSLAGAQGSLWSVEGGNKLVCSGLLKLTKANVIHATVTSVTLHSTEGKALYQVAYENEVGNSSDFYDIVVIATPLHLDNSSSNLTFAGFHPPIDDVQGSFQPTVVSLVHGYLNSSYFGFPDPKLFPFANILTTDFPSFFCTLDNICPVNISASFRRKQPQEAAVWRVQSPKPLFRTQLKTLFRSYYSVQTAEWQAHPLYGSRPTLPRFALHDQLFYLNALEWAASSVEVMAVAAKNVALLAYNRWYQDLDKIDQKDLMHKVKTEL
UniProt Q9H4Z3: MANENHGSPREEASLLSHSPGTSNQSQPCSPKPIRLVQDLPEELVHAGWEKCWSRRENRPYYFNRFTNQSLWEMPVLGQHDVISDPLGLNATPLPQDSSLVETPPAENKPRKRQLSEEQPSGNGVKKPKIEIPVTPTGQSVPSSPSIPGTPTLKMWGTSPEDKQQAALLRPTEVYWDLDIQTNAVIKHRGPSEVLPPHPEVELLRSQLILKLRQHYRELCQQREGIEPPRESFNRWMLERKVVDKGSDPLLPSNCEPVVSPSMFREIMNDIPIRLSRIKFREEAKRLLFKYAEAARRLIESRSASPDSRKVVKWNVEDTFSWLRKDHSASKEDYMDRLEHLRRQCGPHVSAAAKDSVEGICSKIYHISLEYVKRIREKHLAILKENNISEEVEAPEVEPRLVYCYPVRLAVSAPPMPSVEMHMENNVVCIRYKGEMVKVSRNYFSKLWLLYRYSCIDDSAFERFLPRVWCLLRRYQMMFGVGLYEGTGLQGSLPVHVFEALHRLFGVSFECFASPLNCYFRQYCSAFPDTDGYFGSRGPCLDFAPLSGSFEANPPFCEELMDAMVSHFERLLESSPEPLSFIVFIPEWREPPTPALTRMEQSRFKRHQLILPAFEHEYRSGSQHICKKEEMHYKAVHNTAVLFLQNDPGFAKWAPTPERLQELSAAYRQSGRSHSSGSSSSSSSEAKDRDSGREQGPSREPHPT
UniProt Q15118, whole entry, looked up: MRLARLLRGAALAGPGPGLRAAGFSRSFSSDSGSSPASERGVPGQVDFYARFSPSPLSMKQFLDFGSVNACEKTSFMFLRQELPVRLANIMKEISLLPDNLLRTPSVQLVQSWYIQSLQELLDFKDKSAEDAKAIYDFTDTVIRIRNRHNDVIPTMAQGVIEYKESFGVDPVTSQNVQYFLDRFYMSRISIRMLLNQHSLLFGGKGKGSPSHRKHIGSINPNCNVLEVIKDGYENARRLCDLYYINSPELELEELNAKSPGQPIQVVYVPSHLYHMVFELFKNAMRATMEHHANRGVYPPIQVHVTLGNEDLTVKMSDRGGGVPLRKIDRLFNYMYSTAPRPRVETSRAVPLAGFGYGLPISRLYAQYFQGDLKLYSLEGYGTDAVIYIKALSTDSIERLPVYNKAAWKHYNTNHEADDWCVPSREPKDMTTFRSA
UniProt Q5T2R2: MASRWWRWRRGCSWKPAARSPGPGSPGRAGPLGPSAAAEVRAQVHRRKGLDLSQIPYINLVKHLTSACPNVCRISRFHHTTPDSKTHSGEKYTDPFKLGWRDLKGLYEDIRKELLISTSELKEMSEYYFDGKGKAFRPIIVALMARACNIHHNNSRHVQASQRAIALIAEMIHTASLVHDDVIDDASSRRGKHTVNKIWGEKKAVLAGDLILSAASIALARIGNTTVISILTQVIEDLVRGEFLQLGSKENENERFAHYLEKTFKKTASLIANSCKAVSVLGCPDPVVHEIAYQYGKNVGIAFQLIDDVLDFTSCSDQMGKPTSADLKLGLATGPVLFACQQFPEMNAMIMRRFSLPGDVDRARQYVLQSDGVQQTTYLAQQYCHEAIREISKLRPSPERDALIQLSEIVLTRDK
UniProt O94913, whole entry, looked up: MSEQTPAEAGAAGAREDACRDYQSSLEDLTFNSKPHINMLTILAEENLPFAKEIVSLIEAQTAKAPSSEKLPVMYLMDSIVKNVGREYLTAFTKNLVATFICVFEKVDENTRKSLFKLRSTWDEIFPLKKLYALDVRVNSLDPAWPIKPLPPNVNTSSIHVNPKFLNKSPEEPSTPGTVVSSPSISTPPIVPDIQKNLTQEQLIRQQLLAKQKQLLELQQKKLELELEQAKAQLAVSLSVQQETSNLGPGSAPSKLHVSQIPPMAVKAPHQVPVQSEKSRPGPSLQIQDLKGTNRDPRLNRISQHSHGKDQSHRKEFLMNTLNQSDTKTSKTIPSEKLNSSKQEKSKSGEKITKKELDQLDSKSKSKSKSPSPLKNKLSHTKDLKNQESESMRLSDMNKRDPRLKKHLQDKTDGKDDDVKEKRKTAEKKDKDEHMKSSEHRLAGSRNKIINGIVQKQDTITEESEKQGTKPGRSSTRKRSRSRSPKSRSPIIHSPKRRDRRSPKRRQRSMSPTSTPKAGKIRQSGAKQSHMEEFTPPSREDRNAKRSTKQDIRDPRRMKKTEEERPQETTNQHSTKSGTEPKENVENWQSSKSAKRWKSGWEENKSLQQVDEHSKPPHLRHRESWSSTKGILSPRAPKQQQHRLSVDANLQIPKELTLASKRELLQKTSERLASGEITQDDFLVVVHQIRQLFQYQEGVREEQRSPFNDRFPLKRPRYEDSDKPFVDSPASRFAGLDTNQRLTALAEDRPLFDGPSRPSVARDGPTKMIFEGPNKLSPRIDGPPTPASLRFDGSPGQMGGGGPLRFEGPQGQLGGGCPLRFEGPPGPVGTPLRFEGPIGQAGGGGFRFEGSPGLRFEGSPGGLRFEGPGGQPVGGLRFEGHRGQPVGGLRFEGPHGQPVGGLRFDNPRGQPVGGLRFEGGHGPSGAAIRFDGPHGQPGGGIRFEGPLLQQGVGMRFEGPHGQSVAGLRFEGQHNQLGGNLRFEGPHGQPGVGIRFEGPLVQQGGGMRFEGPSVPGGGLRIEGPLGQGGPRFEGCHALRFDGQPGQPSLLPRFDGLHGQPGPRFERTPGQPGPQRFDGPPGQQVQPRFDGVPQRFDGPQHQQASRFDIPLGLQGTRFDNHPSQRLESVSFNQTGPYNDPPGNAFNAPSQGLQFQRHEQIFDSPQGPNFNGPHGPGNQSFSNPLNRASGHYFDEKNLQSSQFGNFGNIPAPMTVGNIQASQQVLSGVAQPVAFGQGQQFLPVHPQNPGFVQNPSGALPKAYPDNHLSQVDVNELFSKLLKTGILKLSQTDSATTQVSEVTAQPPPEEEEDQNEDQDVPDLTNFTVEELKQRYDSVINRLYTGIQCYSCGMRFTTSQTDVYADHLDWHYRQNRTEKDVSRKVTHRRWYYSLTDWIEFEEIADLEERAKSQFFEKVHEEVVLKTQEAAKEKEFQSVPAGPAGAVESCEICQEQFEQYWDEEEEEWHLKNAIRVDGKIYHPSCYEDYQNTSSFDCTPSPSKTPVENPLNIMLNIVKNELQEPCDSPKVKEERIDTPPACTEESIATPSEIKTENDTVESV

Experiments:
Assay in all cases: log2 fold change, soluble protein after heating vs DMSO (PISA); higher = thermal stabilisation; K562 lysate, 10 uM; active = over 0.2 and 3.5 SD of the protein, either way, in both replicates (recomputed)
[1] = compound: CS(=O)(=O)CCNCc1ccc(-c2ccc3ncnc(Nc4ccc(OCc5cccc(F)c5)c(Cl)c4)c3c2)o1 [lapatinib]
Outline: (§1)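 The values are log-two fold changes in thermal stability compared with solvent controls and come from duplicates. They were obtained by TMTpro 16plex LC-MS/MS, with channel sums equalised, on the supernatant after 21,000xg for 90 min. That supernatant came from crude K562 extract at 1 mg/mL protein treated with 10 μM compound for 30 min, heated for 3 min across 48°C-58°C, pooled and brought to 0.5% NP-40 at 4°C.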

[2] = compound: CS(=O)(=O)N1CCN(Cc2cc3nc(-c4cccc5[nH]ncc45)nc(N4CCOCC4)c3s2)CC1 [pictilisib]
Outline: as §1

[3] = compound: C[C@@H](Oc1cc(-c2cnn(C3CCNCC3)c2)cnc1N)c1c(Cl)ccc(F)c1Cl [crizotinib]
Outline: as §1

[4] = compound: C[C@H](C1=CC=C(C=C1)C(=O)NC2=C3C=CNC3=NC=C2)N
Outline: as §1

[5] = compound: C[C@H](Nc1ncnc2nc[nH]c12)c1cc2cccc(Cl)c2c(=O)n1-c1ccccc1 [duvelisib]
Outline: as §1

[6] = compound: Cc1cc(Nc2cc(CN3CCOCC3)c3nc(C)c(Cc4ccc(Cl)cc4F)n3n2)n[nH]1 [gandotinib]
Outline: as §1

[7] = compound: Cc1cc(Nc2cc(N3CCN(C)CC3)nc(Sc3ccc(NC(=O)C4CC4)cc3)n2)n[nH]1 [tozasertib]
Outline: as §1

[8] = compound: Cc1ccc(-n2nc(C(C)(C)C)cc2NC(=O)Nc2ccc(OCCN3CCOCC3)c3ccccc23)cc1 [doramapimod]
Outline: as §1

[9] = compound: Cc1ccc(NC(=O)c2ccc(CN3CC[C@H](N(C)C)C3)c(C(F)(F)F)c2)cc1Nc1nccc(-c2cncnc2)n1 [bafetinib]
Outline: as §1

[10] = compound: Cc1cccc(CC(=O)N2CCc3c2ccc(-c2cn(C)c4ncnc(N)c24)c3F)n1
Outline: as §1

[11] = compound: Cc1nc(Nc2ncc(C(=O)Nc3c(C)cccc3Cl)s2)cc(N2CCN(CCO)CC2)n1 [dasatinib]
Outline: as §1

[12] = compound: Cn1cc(-c2ccc3c(c2)CCN3C(=O)Cc2cccc(C(F)(F)F)c2)c2c(N)ncnc21
Outline: as §1

[13] = compound: Cn1cc(CNCC2CCN(c3ncc(C(=O)NO)cn3)CC2)c2ccccc21 [quisinostat]
Outline: as §1

[14] = compound: NC(=O)Nc1cc(-c2cccc(F)c2)sc1C(=O)N[C@H]1CCCNC1
Outline: as §1

[15] = compound: NC(=O)c1cnc(N[C@@H]2CCCC[C@@H]2N)nc1Nc1cccc(-n2nccn2)c1
Outline: as §1

[16] = compound: NC1(c2ccc(-c3nc4ccn5c(=O)[nH]nc5c4cc3-c3ccccc3)cc2)CCC1
Outline: as §1

[17] = compound: Cc1cn(-c2cc(NC(=O)c3ccc(C)c(Nc4nccc(-c5cccnc5)n4)c3)cc(C(F)(F)F)c2)cn1 [nilotinib]
Outline: as §1

[18] = compound: Cc1nc(Nc2n[nH]c3c2CN(C(=O)N[C@H](CN(C)C)c2ccccc2)C3(C)C)c2sccc2n1
Outline: as §1

[19] = compound: Cc1ncc(-c2ccnc(Nc3ccc(S(C)(=O)=O)cc3)n2)n1C(C)C
Outline: as §1

[20] = compound: Cn1cncc1[C@@](N)(c1ccc(Cl)cc1)c1ccc2c(c1)c(-c1cccc(Cl)c1)cc(=O)n2C [tipifarnib]
Outline: as §1

| Target | log2 fold change [1] | log2 fold change [2] | log2 fold change [3] | log2 fold change [4] | log2 fold change [5] | log2 fold change [6] | log2 fold change [7] | log2 fold change [8] | log2 fold change [9] | log2 fold change [10] | log2 fold change [11] | log2 fold change [12] | log2 fold change [13] | log2 fold change [14] | log2 fold change [15] | log2 fold change [16] | log2 fold change [17] | log2 fold change [18] | log2 fold change [19] | log2 fold change [20] |
| --- | --- | --- | --- | --- | --- | --- | --- | --- | --- | --- | --- | --- | --- | --- | --- | --- | --- | --- | --- | --- |
| PFKFB4 (UniProt Q16877) | inactive: -0.008 | inactive: -0.061 | inactive: -0.034 | inactive: -0.027 | inactive: 0.011 | inactive: -0.044 | inactive: -0.012 | inactive: 0.009 | inactive: -0.003 | inactive: 0.039 | inactive: 0.009 | inactive: -0.045 | inactive: 0.059 | inactive: -0.024 | inactive: 0.015 | inactive: 0.013 |  |  |  |  |
| PES1 (UniProt O00541) | inactive: 0.006 | inactive: 0.005 | inactive: -0.001 | inactive: -0.027 | inactive: 0.01 | inactive: -0.025 | inactive: 0.004 | inactive: -0.021 | inactive: -0.014 | inactive: 0.064 | inactive: 0.016 | inactive: 0.001 | inactive: -0.067 | inactive: 0.026 | inactive: 0.015 | inactive: -0.047 | inactive: -0.004 | inactive: 0.006 | inactive: -0.034 | inactive: 0.001 |
| PFN1 (UniProt I3L3D5) | inactive: 0.066 | inactive: -0.062 |  | active: 0.524 |  | inactive: -0.15 | inactive: -0.051 |  | inactive: -0.19 | inactive: 0.015 |  |  |  |  | inactive: 0.04 |  | inactive: -0.009 | inactive: -0.088 | inactive: 0.108 | inactive: 0.006 |
| PDHA1 isoform 4 (UniProt P08559) | inactive: -0.011 | inactive: -0.019 | inactive: -0.08 | inactive: 0.133 | inactive: 0.083 | inactive: -0.103 | inactive: 0.058 | inactive: 0.035 | inactive: -0.022 | inactive: -0.053 | inactive: -0.011 | inactive: 0.038 | inactive: -0.037 | inactive: 0.005 | inactive: 0.017 | inactive: -0.015 | inactive: -0.029 | inactive: -0.017 | inactive: -0.036 | inactive: 0.02 |
| PCGF5 (UniProt Q86SE9) | inactive: -0.125 | inactive: 0.063 | inactive: -0.08 |  | inactive: 0.021 |  | inactive: -0.063 | inactive: -0.086 | inactive: 0.026 |  | inactive: -0.063 | inactive: 0.017 | inactive: -0.084 | inactive: 0.077 | inactive: -0.082 | inactive: 0.012 | inactive: 0.023 | inactive: 0.12 | inactive: 0.023 | inactive: -0.089 |
| PCYOX1L (UniProt Q8NBM8) | inactive: -0.052 | inactive: 0.013 | inactive: 0.047 | inactive: 0.002 | inactive: -0.043 | inactive: 0.027 | inactive: -0.019 | inactive: 0.003 | inactive: -0.052 | inactive: 0.008 | inactive: 0.034 | inactive: -0.029 | inactive: -0.103 | inactive: 0.01 | inactive: 0.012 | inactive: -0.017 | inactive: -0.008 | inactive: 0.024 | inactive: -0.044 | inactive: -0.022 |
| PGD (UniProt K7EPF6) | inactive: -0.158 | inactive: -0.414 | inactive: -0.163 |  |  |  |  | inactive: 0.045 | inactive: -0.412 |  |  |  | inactive: -0.107 | inactive: 0.023 | inactive: -0.157 |  | inactive: -0.119 | inactive: 0.038 | inactive: 0.237 | inactive: 0.129 |
| PCIF1 (UniProt Q9H4Z3) | inactive: -0.059 | inactive: -0.016 | inactive: -0.001 | active: -0.239 | inactive: 0.216 | inactive: 0.074 | inactive: -0.003 | inactive: 0.017 | inactive: -0.059 | inactive: 0.09 | inactive: 0.118 | active: -0.439 | inactive: 0.019 | inactive: -0.016 | inactive: -0.006 | inactive: 0.022 | inactive: 0.018 | inactive: -0.089 | inactive: 0.011 | inactive: 0.015 |
| PDK1 (UniProt Q15118) | inactive: 0.094 | inactive: -0.141 | inactive: -0.122 | inactive: -0.004 | inactive: -0.025 | inactive: -0.124 | inactive: 0.353 | inactive: 0.04 | inactive: -0.155 | inactive: 0.071 | inactive: 0.113 | inactive: 0.153 | inactive: 0.069 | inactive: -0.013 | inactive: 0.031 | inactive: -0.237 |  |  |  |  |
| PCNT (UniProt O95613) | inactive: -0.016 | inactive: -0.012 | inactive: -0.04 | inactive: -0.15 | inactive: -0.005 | inactive: 0.113 | inactive: 0.034 | inactive: 0.04 | inactive: -0.039 | inactive: 0.118 | inactive: -0.049 | inactive: 0.026 | inactive: -0.072 | inactive: 0.015 | inactive: 0.032 | inactive: -0.007 | inactive: -0.043 | inactive: 0.029 | inactive: 0.012 | inactive: -0.016 |
| PDSS1 (UniProt Q5T2R2) | inactive: 0.081 | inactive: 0.058 | inactive: -0.03 | inactive: 0.038 | inactive: -0.14 | inactive: -0.022 | inactive: 0.001 | inactive: 0.039 | inactive: -0.036 | inactive: -0.043 | inactive: 0.009 | inactive: 0.148 | inactive: -0.057 | inactive: -0.027 | inactive: 0.09 | inactive: -0.073 | inactive: -0.075 | inactive: -0.041 | inactive: -0.012 | inactive: 0.072 |
| PCF11 (UniProt O94913) | inactive: -0.017 | inactive: -0.014 | inactive: -0.018 | inactive: 0.058 | inactive: 0.005 | inactive: -0.086 | inactive: -0.004 | inactive: -0.031 | inactive: -0.021 | inactive: -0.017 | inactive: -0.042 | inactive: -0.017 | inactive: -0.004 | inactive: 0.019 | inactive: -0.013 | inactive: -0.012 | inactive: -0.003 | inactive: -0.001 | inactive: 0.023 | inactive: -0.029 |

Single values from the results shown:
Under log2 fold change [15], PCGF5 (UniProt Q86SE9) shows inactive: -0.082
Under log2 fold change [2], PES1 (UniProt O00541) shows inactive: 0.005
